Test results published in CN111303285A.
These are yes or no findings as the source states them, for the method shown. Some binding calls cover weakened binding; strength is not graded here. For part of these data: Where a sequence is shown, tags or fusion partners need not be part of it.

What was measured:
[1] = biological target: OX40 expressed on cells (OX40-293F细胞; 19B3 HEK293 NF-κB报告细胞系) (UniProt P43489); assay: Flow cytometry (FACS) on transiently transfected OX40-293F cells; antibody in 3-fold dilutions from 10μg/mL; anti-mouse-FITC detection
OX40-His融合蛋白 = biological target: T1, OX40-His融合蛋白 (UniProt P43489); assay: ELISA, fusion protein coated at 1μg/ml, antibody at 1μg/mL
T1 sequence (looked up): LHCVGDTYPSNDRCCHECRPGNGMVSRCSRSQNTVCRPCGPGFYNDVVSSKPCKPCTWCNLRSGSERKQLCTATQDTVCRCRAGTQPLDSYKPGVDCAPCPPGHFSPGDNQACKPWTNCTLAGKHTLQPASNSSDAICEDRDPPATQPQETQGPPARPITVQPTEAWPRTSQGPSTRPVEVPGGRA

OX40-rFc融合蛋白 = biological target: T2, OX40-rFc融合蛋白 (UniProt P43489); assay: as above
T2 sequence (looked up): T1 sequence (looked up)

Measured: binding

B1: 本发明抗OX40抗体 (murine monoclonal anti-OX40 antibody of the invention) (antibody, V domains shown)
VH: EVQLQQSGAELVKPGASVKLSCKASGYTFTNYWIHWVKQRPGQGLEWIGEINPSNGRTNSNEKFKNKATLTVDKSSSTAYMQLSSLTSEDSAVYYCAEAVPYYFVYWGQGTTLTVSS
VL: DIVMTQAASSLSASLGDRVTISCRASQDINNYLNWYQQKPDGTVKLLIYFTSGLRSGVPSRFSGSGSGTDYSLTISNLEQEDIATYFCQQGNTLPLTFGAGTKLELN
binds: all assays above
